Experimental data: PubChem BioAssay AID1259405 (NCATS, 2018)
In all, the deposit lists about 50,000 reagents; this is a part drawn at random. About 4,000 of them (8%) count as active. 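Mouse siRNA library applied to hamster cells; one well for each siRNA.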 Reagents against one gene are numbered here.

Aim: 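Mouse-designed siRNAs used to find CHO productivity engineering targets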 (primary screen)
Cells: Chinese hamster CHO-K1 ovary cells with stable secreted eGFP expression
Reagents: single siRNA against mouse genes, 0.8 pmol siRNA per well (2 µl of 400 nM stock)
Duration: 3 days
Detection: 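Per-well intracellular GFP measured by laser scanning cytometry, plus viability from ATP luminescence, each relative to plate median of non-targeting control wells, in %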
Scale: GFP, % of control: higher = more GFP per well, higher productivity; viability (ATP), % of control: higher = more viable cells (more ATP)
Hit rule: 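Called active when intracellular GFP, relative to negative control, is at or above 120%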

The opening 10 records, to show the layout:
no.	gene symbol	reagent	GFP, % of control	viability (ATP), % of control	Outcome
1	Rrp1 (GeneID 18114)	1	66.9	55.6	inactive
2	Rrp1 (GeneID 18114)	2	43.5	56.6	inactive
3	Rrp1 (GeneID 18114)	3	70.9	78.3	inactive
4	Usp44 (GeneID 327799)	1	78.6	79.8	inactive
5	Usp44 (GeneID 327799)	2	69.3	64.6	inactive
6	Usp44 (GeneID 327799)	3	56.8	59.1	inactive
7	Gzmg (GeneID 14944)	1	129	120	active
8	Gzmg (GeneID 14944)	2	133	110	active
9	Gzmg (GeneID 14944)	3	59.7	68.8	inactive
10	Ubap2 (GeneID 68926)	1	79	96.5	inactive

Results, from the first entry:
no.	gene symbol	reagent	GFP, % of control	viability (ATP), % of control	Outcome
1	Rrp1 (GeneID 18114)	1	66.9	55.6	inactive
2	Rrp1 (GeneID 18114)	2	43.5	56.6	inactive
3	Rrp1 (GeneID 18114)	3	70.9	78.3	inactive
4	Usp44 (GeneID 327799)	1	78.6	79.8	inactive
5	Usp44 (GeneID 327799)	2	69.3	64.6	inactive
6	Usp44 (GeneID 327799)	3	56.8	59.1	inactive
7	Gzmg (GeneID 14944)	1	129	120	active
8	Gzmg (GeneID 14944)	2	133	110	active
9	Gzmg (GeneID 14944)	3	59.7	68.8	inactive
10	Ubap2 (GeneID 68926)	1	79	96.5	inactive
11	Ubap2 (GeneID 68926)	2	78.4	85.4	inactive
12	Ubap2 (GeneID 68926)	3	93.7	99.6	inactive
13	Tsc2 (GeneID 22084)	1	115	142	inactive
14	Tsc2 (GeneID 22084)	2	118	91.8	inactive
15	Tsc2 (GeneID 22084)	3	56.5	83.3	inactive
16	Dlst (GeneID 78920)	1	58.9	84.7	inactive
17	Dlst (GeneID 78920)	2	103	131	inactive
18	Dlst (GeneID 78920)	3	82.7	99.5	inactive
19	Txnrd2 (GeneID 26462)	1	74.8	90.3	inactive
20	Txnrd2 (GeneID 26462)	2	61.2	83.1	inactive
21	Txnrd2 (GeneID 26462)	3	48.9	53.5	inactive
22	Zfand5 (GeneID 22682)	1	65.5	62.6	inactive
23	Zfand5 (GeneID 22682)	2	73.2	63.6	inactive
24	Zfand5 (GeneID 22682)	3	110	70.5	inactive
25	Stk11 (GeneID 20869)	1	44.4	52.6	inactive
26	Wdr77 (GeneID 70465)	1	54.7	72.7	inactive
27	Wdr77 (GeneID 70465)	2	74.9	73.2	inactive
28	Wdr77 (GeneID 70465)	3	72.5	75.4	inactive
29	Zbtb37 (GeneID 240869)	1	68.7	60.7	inactive
30	Zbtb37 (GeneID 240869)	2	58.2	69.1	inactive
31	Zbtb37 (GeneID 240869)	3	101	102	inactive
32	Slit1 (GeneID 20562)	1	146	64.4	active
33	Slit1 (GeneID 20562)	2	101	89.3	inactive
34	Slit1 (GeneID 20562)	3	107	73	inactive
35	Polr3k (GeneID 67005)	1	88.3	60.2	inactive
36	Polr3k (GeneID 67005)	2	76.3	84.9	inactive
37	Nhsl1 (GeneID 215819)	1	66.8	74.9	inactive
38	Nhsl1 (GeneID 215819)	2	34.3	65.1	inactive
39	Nhsl1 (GeneID 215819)	3	95.3	119	inactive
40	Ifngr2 (GeneID 15980)	1	98	119	inactive
41	Ifngr2 (GeneID 15980)	2	73	62.5	inactive
42	Ifngr2 (GeneID 15980)	3	63.2	81.7	inactive
43	Or5c1 (GeneID 258371)	1	54.8	40.1	inactive
44	Or5c1 (GeneID 258371)	2	84.1	85.4	inactive
45	Or5c1 (GeneID 258371)	3	103	21.1	inactive
46	Ifna12 (GeneID 242519)	1	92.6	64.9	inactive
47	Ifna12 (GeneID 242519)	2	29.1	21.2	inactive
48	Ifna12 (GeneID 242519)	3	63.7	48.4	inactive
49	4930503L19Rik (GeneID 269033)	1	81.4	65.9	inactive
50	4930503L19Rik (GeneID 269033)	2	70.4	75.5	inactive
51	4930503L19Rik (GeneID 269033)	3	68.2	89.9	inactive
52	Rpl36a (GeneID 19982)	1	64.6	58	inactive
53	Rpl36a (GeneID 19982)	2	73.6	77.8	inactive
54	Rpl36a (GeneID 19982)	3	37.9	40.1	inactive
55	Or5p55 (GeneID 258926)	1	87.2	83.8	inactive
56	Or5p55 (GeneID 258926)	2	74	75.4	inactive
57	Or5p55 (GeneID 258926)	3	51.5	53.6	inactive
58	Gm4793 (GeneID 215714)	1	56.9	76.6	inactive
59	Gm4793 (GeneID 215714)	2	27.1	34.3	inactive
60	Gm4793 (GeneID 215714)	3	57.9	84.1	inactive
61	Ift80 (GeneID 68259)	1	120	67.8	active
62	Ift80 (GeneID 68259)	2	69.3	69.1	inactive
63	Ift80 (GeneID 68259)	3	73.4	64.4	inactive
64	G6pc2 (GeneID 14378)	1	109	94.2	inactive
65	G6pc2 (GeneID 14378)	2	79.3	74	inactive
66	G6pc2 (GeneID 14378)	3	81	70.2	inactive
67	Hsph1 (GeneID 15505)	1	84.2	86.9	inactive
68	Hsph1 (GeneID 15505)	2	59.8	73.8	inactive
69	Hsph1 (GeneID 15505)	3	115	116	inactive
70	Nmu (GeneID 56183)	1	147	84.2	active
71	Nmu (GeneID 56183)	2	81.7	88.6	inactive
72	Nmu (GeneID 56183)	3	65.1	74	inactive
73	Slk (GeneID 20874)	1	45.5	47.8	inactive
74	Ppp3r2 (GeneID 19059)	1	83	107	inactive
75	Ppp3r2 (GeneID 19059)	2	45.5	68.5	inactive
76	Ppp3r2 (GeneID 19059)	3	64.1	81.5	inactive
77	Phc3 (GeneID 241915)	1	107	108	inactive
78	Phc3 (GeneID 241915)	2	97.4	82.6	inactive
79	Rtn2 (GeneID 20167)	1	99	88.2	inactive
80	Rtn2 (GeneID 20167)	2	27.3	12.2	inactive
81	Rtn2 (GeneID 20167)	3	52.9	58.3	inactive
82	Ago1 (GeneID 236511)	1	93.5	73	inactive
83	Ago1 (GeneID 236511)	2	65.8	88.5	inactive
84	Ago1 (GeneID 236511)	3	129	108	active
